{
  "sequences": {"note": "Amino acid sequences for entries named in this document (tags omitted). A change or cut given only in a name is not applied to a line headed by its entry. Residues count along the entry.", "UniProt P03968, residues 16-155": "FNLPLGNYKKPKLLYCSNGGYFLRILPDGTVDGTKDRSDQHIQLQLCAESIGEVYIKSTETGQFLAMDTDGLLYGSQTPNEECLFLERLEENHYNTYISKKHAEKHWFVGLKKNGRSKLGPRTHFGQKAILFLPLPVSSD", "UniProt P21803": "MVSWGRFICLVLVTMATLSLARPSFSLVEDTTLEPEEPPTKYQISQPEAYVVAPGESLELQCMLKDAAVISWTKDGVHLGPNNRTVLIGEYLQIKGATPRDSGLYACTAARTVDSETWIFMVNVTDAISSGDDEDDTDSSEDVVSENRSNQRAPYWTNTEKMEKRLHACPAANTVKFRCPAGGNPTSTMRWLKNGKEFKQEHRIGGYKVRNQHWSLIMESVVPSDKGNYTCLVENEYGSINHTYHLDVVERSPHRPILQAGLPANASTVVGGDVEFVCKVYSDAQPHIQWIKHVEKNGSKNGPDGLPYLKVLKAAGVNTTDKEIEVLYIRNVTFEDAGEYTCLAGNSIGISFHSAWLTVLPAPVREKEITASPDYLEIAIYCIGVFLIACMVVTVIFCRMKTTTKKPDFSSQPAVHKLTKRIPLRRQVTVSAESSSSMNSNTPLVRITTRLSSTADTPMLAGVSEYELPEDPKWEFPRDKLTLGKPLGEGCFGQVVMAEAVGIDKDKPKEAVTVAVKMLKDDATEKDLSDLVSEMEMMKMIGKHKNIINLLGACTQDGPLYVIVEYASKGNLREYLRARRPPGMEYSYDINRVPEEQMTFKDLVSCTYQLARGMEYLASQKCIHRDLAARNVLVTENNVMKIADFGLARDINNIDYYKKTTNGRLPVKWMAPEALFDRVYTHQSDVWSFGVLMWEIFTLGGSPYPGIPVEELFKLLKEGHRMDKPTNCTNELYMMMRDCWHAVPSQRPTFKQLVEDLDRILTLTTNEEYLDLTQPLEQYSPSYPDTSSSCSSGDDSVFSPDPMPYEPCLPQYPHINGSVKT"},
  "source": "patent US6403769",
  "molecular_target": "bovine brain aFGF (bovine) (UniProt P03968)",
  "test": "summary of the in vitro binding assay",
  "note": "No constants are given. Whether binding was seen depends on the method and setting. Some binding calls cover weakened binding; strength is not graded here.",
  "data": [
    {"substance": "D2-HFc fusion protein (from UniProt P21803 22-156; P01868 98-324)", "values": [
      {"measurement": "binding", "value": "binds"}
    ]}
  ]
}
